Laboratory results published in paper PMC7347136 (PLoS ONE, 2020).

Columns and labels:
tumor cells = conditions: read-out: average anti-proliferative activity (IC50); cited from earlier work
Colo205 = assay: Resazurin reduction cell viability assay; format: cell-based; conditions: Homo sapiens, COLO 205; 72 h continuous treatment; read-out: Colo205 IC50 ± SD
Procedure: Solid tumor cell lines were seeded in 100 μl medium into 96-well plates at an appropriate cell number determined by a cell dilution assay (Cal51–2000 cells/well; Colo205, MCF10A and 184A1–3000 cells/well and MDA-MB-468, HCC1954–4000 cells/well). AML suspension cells were seeded in 96-well plates at approximately 3000 cells per well. Cells were incubated overnight at 37°C, 5% CO2. The following day, 100 μl fresh medium containing increasing concentrations of appropriate compound was added and the cells were incubated for up to 72 h at 37°C, 5% CO2. For pulse treatment of solid (adherent) tumor cell lines, medium was aspirated and replaced with fresh drug-free medium. For pulse treatment of suspension lines, plates were centrifuged at 478 xg for 5 min at the end of the incubation period with compound, medium containing compound was carefully aspirated and replaced with fresh compound-free medium. A total of 72 h after the start of treatment, 20 μl of a 10X stock of resazurin sodium salt (Sigma-Aldrich, Dorset, UK) prepared in medium was added to the cells and incubated for up to 3 h. […] was measured on the Wallac Victor plate reader (Cambridge, UK) at 544–595 nm. IC50/70/90 calculations were determined in XLFit.

With `CC[C@H](CO)Nc1nc(NCc2ccccc2)c2ncn(C(C)C)c2n1` [Seliciclib] as the compound, how does the IC50 (tumor cells) read?
The IC50 was ~15 µM.

What about the IC50 (Colo205) of the same compound?
The IC50 was 13.3 µM.
